Laboratory results taken from article PMC12116642.
These are yes or no findings as the source states them, for the method shown. Binding seen in cells or lysates may run through a third protein. Some entries that bind do so weakly or less than the wild type.

Sequences of proteins named here, by UniProt entry; tags and fusion partners are left off.
UniProt Q9UPY5: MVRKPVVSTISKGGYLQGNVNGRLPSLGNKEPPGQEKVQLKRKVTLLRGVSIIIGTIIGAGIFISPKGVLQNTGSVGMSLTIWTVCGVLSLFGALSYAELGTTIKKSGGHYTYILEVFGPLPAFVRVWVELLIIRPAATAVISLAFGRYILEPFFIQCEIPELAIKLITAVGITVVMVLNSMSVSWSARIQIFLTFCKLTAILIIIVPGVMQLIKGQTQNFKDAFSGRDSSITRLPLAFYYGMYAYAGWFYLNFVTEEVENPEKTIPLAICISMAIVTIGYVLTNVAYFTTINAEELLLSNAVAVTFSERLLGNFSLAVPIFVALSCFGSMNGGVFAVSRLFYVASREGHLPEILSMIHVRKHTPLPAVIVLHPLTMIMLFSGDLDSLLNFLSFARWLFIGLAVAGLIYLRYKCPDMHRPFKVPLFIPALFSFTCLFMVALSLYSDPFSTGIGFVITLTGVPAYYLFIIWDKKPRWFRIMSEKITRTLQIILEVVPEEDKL
UniProt Q14457: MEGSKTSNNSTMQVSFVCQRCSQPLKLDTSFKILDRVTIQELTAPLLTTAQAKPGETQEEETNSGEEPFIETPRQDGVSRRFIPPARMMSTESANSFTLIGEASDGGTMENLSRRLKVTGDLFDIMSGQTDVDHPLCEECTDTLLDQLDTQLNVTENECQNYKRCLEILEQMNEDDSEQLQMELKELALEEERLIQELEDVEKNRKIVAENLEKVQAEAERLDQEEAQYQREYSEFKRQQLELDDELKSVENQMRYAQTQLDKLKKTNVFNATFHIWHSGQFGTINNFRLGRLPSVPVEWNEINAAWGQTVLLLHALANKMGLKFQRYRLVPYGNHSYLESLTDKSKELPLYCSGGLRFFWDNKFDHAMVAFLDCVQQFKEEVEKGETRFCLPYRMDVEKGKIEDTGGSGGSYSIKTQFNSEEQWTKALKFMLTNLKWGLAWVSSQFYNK

Target: solute carrier family 7 member 11 (SLC7A11) (human (endogenous in HN6 and CAL27)) (UniProt Q9UPY5)
Experiment: co-IP; total protein lysates of HN6 and CAL27 cells, control or treated with CAP (capsaicin); immunoprecipitation kit with specific antibodies, protein A/G magnetic beads, elution by boiling in SDS sample buffer, Western blot; the precipitating antibody is not named

binding: binds
Substance: BECN1 (from UniProt Q14457 1-450)
